Experimental data: publication doi:10.1101/2020.06.14.150508
These are yes or no findings as the source states them, for the method shown. Binding seen in cells or lysates may run through a third protein. Some binding calls cover weakened binding; strength is not graded here.

Legend:
[1] = target: MKK7^[change]-HA (Arabidopsis thaliana) (UniProt Q9LPQ3); assay: co-IP
[2] = target: MKK7^[change]-RFP (Arabidopsis thaliana) (UniProt Q9LPQ3); assay: FRET or BRET
[3] = target: MKK7^[change]-cluc (Arabidopsis thaliana) (UniProt Q9LPQ3); assay: split reporter

Substance: HopZ1a^C216A-3xFLAG (from UniProt Q6VE93 1-369)
- binding [1]: binds

Substance: HopZ1a^C216A-GFP (from UniProt Q6VE93 1-369)
- binding [2]: binds

Substance: HopZ1a^C216A-nluc (from UniProt Q6VE93 1-369)
- binding [3]: binds
